Library screening results

Chains of the proteins cited; added tags and fusions are not shown.
UniProt E9BF75, entry or part of it: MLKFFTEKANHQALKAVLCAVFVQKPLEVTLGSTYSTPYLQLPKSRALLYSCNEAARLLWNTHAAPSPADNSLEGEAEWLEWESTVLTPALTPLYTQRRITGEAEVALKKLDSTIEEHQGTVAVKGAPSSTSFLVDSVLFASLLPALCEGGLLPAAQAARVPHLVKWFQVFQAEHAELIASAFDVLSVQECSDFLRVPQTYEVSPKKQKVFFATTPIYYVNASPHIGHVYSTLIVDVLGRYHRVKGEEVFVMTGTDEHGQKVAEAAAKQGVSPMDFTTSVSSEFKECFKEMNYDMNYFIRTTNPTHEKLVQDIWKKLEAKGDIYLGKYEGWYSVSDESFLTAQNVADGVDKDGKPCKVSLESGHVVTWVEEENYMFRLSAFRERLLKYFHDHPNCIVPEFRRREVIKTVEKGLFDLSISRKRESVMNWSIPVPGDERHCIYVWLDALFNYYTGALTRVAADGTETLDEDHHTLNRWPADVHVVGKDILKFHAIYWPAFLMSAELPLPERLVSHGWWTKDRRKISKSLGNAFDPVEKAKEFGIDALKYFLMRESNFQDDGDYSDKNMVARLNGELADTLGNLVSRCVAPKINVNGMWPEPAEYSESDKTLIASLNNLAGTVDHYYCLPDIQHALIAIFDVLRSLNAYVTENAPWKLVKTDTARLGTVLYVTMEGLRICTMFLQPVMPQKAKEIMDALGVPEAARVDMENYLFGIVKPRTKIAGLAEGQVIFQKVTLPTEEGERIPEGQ

From ChEMBL document CHEMBL3988442, “University of Dundee, Small-Polar-MMV Screening Library” (2021).

Mtb heat-shock: 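Assay on Mycobacterium tuberculosis, filed only as a heat shock assay from Cornell; the read-out is not stated. The concentration is filed as 10 mM, unlikely as a test dose, so the dose is not known. Direction is inferred from retests: higher values go with stronger inhibition. Size under these conditions: about 69,000 compounds, about 930 of them at 50% or above in at least one test.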
LdMetRS: 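Methionyl-tRNA synthetase (putative), Leishmania donovani (UniProt E9BF75). Primary screen of methionyl-tRNA synthetase; the read-out is not stated. The test concentration is not given. Values are per cent inhibition. About 68,000 compounds were tested under these conditions; 0.035% (about 24) showed 50% or more at least once.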
Mtb growth Cornell: 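Whole-cell assay for inhibitors of Mycobacterium tuberculosis growth, labelled Cornell in the record; the read-out is not stated. The concentration is filed as 10 mM, unlikely as a test dose, so the dose is not known. Higher means stronger inhibition (inferred from two other growth screens of the library). Size under these conditions: about 53,000 compounds, about 900 of them at 50% or above in at least one test.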

All values are in %. The record does not define 0% and 100%; most values in the screen are far below 50% and negative numbers occur (in some assays of this library far below -100). Compounds were drawn at random from those tested, without regard to their results.

{"structure": "CC(C)CC(=O)N1CCc2nc(N3CCOCC3)nc(NC(C)C)c2C1", "Mtb heat-shock": -53.35, "LdMetRS": 15.68}
{"structure": "CCc1ccccc1-n1cc(O)c(C(=O)N2CCCCC2)n1", "Mtb heat-shock": 56, "LdMetRS": 4.762, "Mtb growth Cornell": 28.83}
{"structure": "Cc1ncsc1CCC(=O)NCc1csc(N(C)C)n1", "Mtb heat-shock": -14.06, "LdMetRS": 12.45}
{"structure": "COCCN1CCCN(C(=O)c2oc(C)nc2C)CC1", "Mtb heat-shock": 10.62, "LdMetRS": 5.075, "Mtb growth Cornell": 14.63}
{"structure": "O=c1c(S(=O)(=O)N2CCCC2)cccn1Cc1ccccc1Cl", "Mtb heat-shock": 5.691, "LdMetRS": 16.07, "Mtb growth Cornell": 37.13}
{"structure": "CC(O)CN1CCC(CNCc2ccc(C#N)cc2)CC1", "stereo": "configuration not stated", "Mtb heat-shock": -55.38, "LdMetRS": 10.03, "Mtb growth Cornell": 9.897}
{"structure": "O=C(Nc1ccc(-c2csnn2)cc1)N1CCC(N2CCCC2)C1", "stereo": "configuration not stated", "Mtb heat-shock": -14.32, "LdMetRS": 19.73, "Mtb growth Cornell": 5.643}
{"structure": "COCc1ccc(CNC(=O)CN2CCc3ccccc32)cc1", "Mtb heat-shock": -22.17, "LdMetRS": 15.22, "Mtb growth Cornell": 12.84}
{"structure": "COc1ccc(CCCC(=O)N2C[C@H](C3CC3)[C@@H](N(C)C)C2)cc1", "Mtb heat-shock": 8.525, "LdMetRS": 7.161, "Mtb growth Cornell": 12.53}
{"structure": "Cc1c(CS(C)(=O)=O)cccc1NCCCC1CCCC1", "Mtb heat-shock": -1.44, "LdMetRS": 23.64, "Mtb growth Cornell": 34.2}
{"structure": "CCOCc1ccccc1NC(=O)NCC(c1cnn(C)c1)N(C)C", "stereo": "configuration not stated", "Mtb heat-shock": 0.7766, "LdMetRS": 17.4}
{"structure": "COC(=O)c1cccc(C(=O)N2CCN(c3cc(C)ccc3C)CC2)n1", "Mtb heat-shock": -3.239, "LdMetRS": 11.27, "Mtb growth Cornell": 40.53}
{"structure": "CC(C)c1nc(CN(C)C(=O)c2ccccc2C2CCNC2)cs1", "stereo": "configuration not stated", "Mtb heat-shock": -3.633, "LdMetRS": -3.911, "Mtb growth Cornell": -7.346}
{"structure": "CNC(=O)C1CNCCN1C(=O)c1ccc(C(F)(F)F)nc1C.Cl", "stereo": "configuration not stated", "Mtb heat-shock": 13.87, "Mtb growth Cornell": 12.39}
{"structure": "O=C(O)C(F)(F)F.[H][C@@]12CN(Cc3cccc(C)c3)C[C@]1([H])OCCN2CC(=O)N(C)C", "Mtb heat-shock": 42.49, "Mtb growth Cornell": -0.009903}
{"structure": "Cc1ccc(NS(=O)(=O)c2c[nH]c3ncccc23)nc1", "Mtb heat-shock": 0.4493, "LdMetRS": 9.524}
{"structure": "CN(C)[C@@H]1CN(C(=O)Cc2ccc(F)cc2)[C@@H]2CCCO[C@H]12", "LdMetRS": 1.558}
{"structure": "[H][C@]12CN(C(C)=O)CCN1C[C@H](CO)[C@H]2c1ccccc1", "Mtb heat-shock": 9.381, "Mtb growth Cornell": 20.99}
{"structure": "CCn1ccnc1CN1CCCC(N(C)CCc2ccccc2)C1", "stereo": "configuration not stated", "Mtb heat-shock": -26.92, "LdMetRS": 7.358, "Mtb growth Cornell": 15.93}
{"structure": "Cc1cc(C)c2nc(CN3CCC(CN)C3)cc(O)c2c1", "stereo": "configuration not stated", "Mtb heat-shock": -4.975, "LdMetRS": 10.44}
{"structure": "COc1ccc(NC(=O)N2CCC3(CC2)NC(=O)CC3C(=O)O)c(C)c1", "stereo": "configuration not stated", "Mtb heat-shock": 11.67, "LdMetRS": 12.57}
{"structure": "O=C1[C@H]2CN(Cc3ccc(F)cc3)C[C@H]2CN1c1ccsc1", "LdMetRS": 4}
{"structure": "O=C(O)C(F)(F)F.O=C(c1ccncn1)N1CCC[C@]2(C[C@H](Oc3ncccc3F)CO2)C1", "Mtb heat-shock": -22.98, "Mtb growth Cornell": -45.76}
{"structure": "Cc1nc(COC[C@@H]2CCC[C@@]23CN(C)CCO3)cs1.O=C(O)C(F)(F)F", "Mtb heat-shock": 8.29, "Mtb growth Cornell": 20.58}
{"structure": "Cn1cccc1C(=O)N[C@H]1CN(Cc2ccoc2)[C@@H]2CCCO[C@H]12", "LdMetRS": -2.597}
{"structure": "Cc1ccc(Cl)c(CN2CCN(C)C(C(=O)O)C2)c1F", "stereo": "configuration not stated", "Mtb heat-shock": -9.356, "LdMetRS": 16.51, "Mtb growth Cornell": 19.01}
{"structure": "O=C(CCc1ccccn1)N1CCN(C(=O)CC2CCCCC2)CC1", "Mtb heat-shock": -4.834, "LdMetRS": 18.06}
{"structure": "Cc1nnc2n1CCN(C(=O)CN1C(=O)CCOc3ccccc31)C2", "Mtb heat-shock": 18.21, "LdMetRS": 9.42, "Mtb growth Cornell": -0.8149}
{"structure": "CS(=O)(=O)c1cnc(C2CCCC2)nc1C1CCCNC1", "stereo": "configuration not stated", "Mtb heat-shock": -3.686, "LdMetRS": 11.17, "Mtb growth Cornell": -7.287}
{"structure": "CC(=O)N1CCC2(CC1)COCCN2Cc1ccc(F)cc1.O=C(O)C(F)(F)F", "Mtb heat-shock": -4.953, "Mtb growth Cornell": 4.004}
{"structure": "CN(C)CCNC(=O)c1nc2c(o1)CN(C(=O)c1cccnc1)C2.O=C(O)C(F)(F)F.O=C(O)C(F)(F)F", "Mtb heat-shock": -22.41, "Mtb growth Cornell": -11.43}
{"structure": "O=C(c1coc(-c2ccccc2)n1)N1CCS(=O)(=O)CC1", "Mtb heat-shock": -175, "LdMetRS": 19.03}

Once more, the final 4:

* CS(=O)(=O)c1cnc(C2CCCC2)nc1C1CCCNC1 (configuration not stated) : Mtb heat-shock: -3.686%; LdMetRS: 11.17%; Mtb growth Cornell: -7.287%
* CC(=O)N1CCC2(CC1)COCCN2Cc1ccc(F)cc1.O=C(O)C(F)(F)F : Mtb heat-shock: -4.953%; Mtb growth Cornell: 4.004%
* CN(C)CCNC(=O)c1nc2c(o1)CN(C(=O)c1cccnc1)C2.O=C(O)C(F)(F)F.O=C(O)C(F)(F)F : Mtb heat-shock: -22.41%; Mtb growth Cornell: -11.43%
* O=C(c1coc(-c2ccccc2)n1)N1CCS(=O)(=O)CC1 : Mtb heat-shock: -175%; LdMetRS: 19.03%